The target of the test is T1, prothymosin α (ProTα) (UniProt P06454).
T1 sequence: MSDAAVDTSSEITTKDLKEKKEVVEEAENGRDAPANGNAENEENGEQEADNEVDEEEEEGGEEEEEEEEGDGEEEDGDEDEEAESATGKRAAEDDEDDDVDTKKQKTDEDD
Description: associative phase separation (complex coacervation; brightfield microscopy and coexistence measurements of dense and dilute phases); ProTα mixed with a polycation at charge balance in TEK buffer; images at 90 mM KCl (ionic strength 98 mM); phase diagrams as a function of salt concentration; both purified.

Results are given in words; binding and its absence hold for the method and conditions named. Some results given as binding are weak or reduced against the parent protein; the word gives no strength.

Consider RRRRRRRRRRRRRRRRRRRRRRRRRRRRRRRRRRRRRRRRRRRRRRRRRR [poly-L-arginine-50 (R50)], for which the binding entry is “binds”.

Consider KKKKKKKKKKKKKKKKKKKKKKKKKKKKKKKKKKKKKKKKKKKKKKKKKK [poly-L-lysine-50 (K50)], for which the binding entry was “binds”.

For the origin of these results see article PMC12167954.
